Here are results for one substance from publication PMC12876990, “Targeting secreted PLA2 interactions with EGFR and vimentin to arrest prostate tumour growth” (Cell Death & Disease, 2025).

This experiment deals with T1, secreted phospholipase A2 human group IIA (hGIIA) (human) (UniProt P14555).
T1 sequence: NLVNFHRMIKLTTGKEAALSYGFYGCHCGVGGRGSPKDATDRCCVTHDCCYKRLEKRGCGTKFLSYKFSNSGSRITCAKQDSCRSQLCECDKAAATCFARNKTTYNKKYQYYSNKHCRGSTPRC
Kind of experiment: co-IP; PC-3 cells incubated with hGIIA (2 µg/mL, 2 h), washed, lysed; lysate immunoprecipitated with anti-hGIIA antibody and protein G agarose beads overnight; EGFR detected by western blot; also with c2 pre-incubation (100 µM, 2 h); only the target purified.

These are yes or no findings as the source states them, for the method shown. Binding seen in cells or lysates may run through a third protein. Some binding calls cover weakened binding; strength is not graded here.

Turning to “epidermal growth factor receptor (EGFR) (from UniProt P00533 25-1210)”, the binding result is given as “binds”.
